Source: patent publication US10201587B2, “Methods of inhibiting and treating biofilms using glycopeptide antibiotics” (MELINTA THERAPEUTICS, INC., priority 2008, dated 2019)
Some results were stated once for a whole list of compounds, not compound by compound.

Legend:
MRSA ATCC 33591 = experiment: Time-kill in nutrient-depleted CAMHB; assay type: cell-based, S. aureus; conditions: stationary-phase inoculum; for activity at 24 hours: free-trough concentrations
Method: (§1) Nutrient-depleted CAMHB from each respective strain was prepared by 3 rounds of inoculation of CAMHB with exponential-phase bacteria, incubation overnight at 37° C. with rotation (225 rpm) and centrifugation (8000×g for 30 minutes) to remove bacteria. After the final round of inoculation, growth and centrifugation, the pH of the nutrient-depleted CAMHB was adjusted to pH=7.0 and the spent medium was filter-sterilized using a […] membrane (Corning Incorporated, Corning, N.Y.).
(§2) Nutrient-depleted CAMHB containing diluted antimicrobial agents was inoculated with stationary-phase bacteria from overnight cultures of the S. aureus strains at approximately 10^7 colony-forming units (CFU)/mL. Other experiments compared the killing of stationary- and exponential-phase S. aureus ATCC 29213 when inoculated into nutrient-depleted CAMHB containing the test agents. For assays involving daptomycin, nutrient-depleted CAMHB was supplemented with 50 μg/ml CaCl2 (8). All time-kill studies were performed in 96-well deep-well plates at 37° C. with rotation (225 rpm) in a total volume of 750 μL. Bacteria were enumerated by serial-dilution plating. Bacteriostatic and bactericidal activity of the antimicrobial agents were defined as a reduction in viable cell counts of <3 or ≥3 log at 24 hours relative to the starting inoculum, respectively (33). Experiments were repeated at least three times and produced similar results; results from one experiment are presented.

MSSA ATCC 29213 [1] = experiment: Time-kill in nutrient-depleted CAMHB; assay type: cell-based, S. aureus
Method: as §1, §2

VRSA VRS5 = experiment: Time-kill in nutrient-depleted CAMHB; assay type: cell-based, S. aureus; conditions: stationary-phase inoculum; for activity at the 24-hour time point: fCmax; for activity at 24 hours: free-trough concentrations
Method: as §1, §2

MSSA ATCC 29213 [2] = experiment: MBEC system in vitro biofilm (MIC and MBEC); assay type: cell-based, S. aureus; conditions: 72-hour biofilms
Method: (§3) The commercially-available MBEC™ system (Innovotech; Edmonton, AB, Canada) was used following the manufacturer's protocol (17) to establish in vitro biofilms of S. aureus and to determine the minimal biofilm eradication concentration (MBEC) of oritavancin and comparator antimicrobial agents. The MBEC represents the concentration of antimicrobial agent required to sterilize the biofilm after 24 hours of exposure. The MBEC™ system also allows for the determination of the minimal inhibitory concentration (MIC) of the test agent against planktonic cells under the conditions of the biofilm assay.
(§4) 150 μL of bacterial inocula at 10^7 CFU/mL in tryptic soy broth was aliquoted into each well of an MBEC plate. Biofilms were established for 24 hours in a rotary incubator at 37° C. and 150 rpm. For experiments involving 72-hour biofilms, peg lids were transferred each day to 96-well plates containing 150 μL/well of fresh tryptic soy broth and incubated another 24 hours. […] The recovery plates were sonicated for 5 minutes in an ultrasonic sonicating bath (VWR Aquasonic model 550D) at the maximum setting then incubated for 24 hours and the MBECs recorded. MBECs were determined from at least three independent experiments; results represent the ranges of MBECs obtained. […]

[3] = test system: S. aureus strains (MSSA ATCC 29213, MRSA ATCC 33591, VRSA VRS5); experiment: MBEC system in vitro biofilm, statements over all three strains; assay type: cell-based; conditions: 24-hour biofilm
Method: as §3, §4

[4] = test system: E. faecium ATCC 51559 (VanA VRE); experiment: MBEC plate biofilm eradication; assay type: cell-based; conditions: 24 h of drug challenge
Source text: (§5) The following strains were used for in vitro biofilm studies: vancomycin (VAN)-susceptible Enterococcus faecalis ATCC 29212 (VSE), VAN-resistant E. faecalis ATCC 51299 (VanB VRE), E. faecium ATCC 51559 (VanA VRE), S. epidermidis ATCC 12228 and the slime-producing strain S. epidermidis ATCC 35984. Biofilms were established in MBEC™ Physiology & Genetics Assay plates (Innovotech; Edmonton, Canada).

[5] = test system: S. epidermidis ATCC 12228; experiment: MBEC plate biofilm eradication; assay type: cell-based; conditions: single agents
Source text: as §5

[6] = test system: VAN-resistant E. faecalis ATCC 51299 (VanB VRE); experiment: MBEC plate biofilm eradication; assay type: cell-based; conditions: 24 h of drug challenge
Source text: as §5

[7] = test system: vancomycin (VAN)-susceptible Enterococcus faecalis ATCC 29212 (VSE); experiment: MBEC plate biofilm eradication; assay type: cell-based; conditions: 24 h of drug challenge
Source text: as §5

[8] = exponential-phase inoculum, estimated fCmax, nutrient-depleted CAMHB

SMILES: CN[C@H](CC(C)C)C(=O)N[C@H]1C(=O)N[C@@H](CC(N)=O)C(=O)N[C@H]2C(=O)N[C@H]3C(=O)N[C@H](C(=O)N[C@H](C(=O)O)c4cc(O)cc(O)c4-c4cc3ccc4O)[C@H](O[C@H]3C[C@](C)(N)[C@@H](O)[C@H](C)O3)c3ccc(c(Cl)c3)Oc3cc2cc(c3O[C@@H]2O[C@H](CO)[C@@H](O)[C@H](O)[C@H]2O[C@H]2C[C@](C)(NCc3ccc(-c4ccc(Cl)cc4)cc3)[C@@H](O)[C@H](C)O2)Oc2ccc(cc2Cl)[C@H]1O [Oritavancin, N-(4-(4-chlorophenyl)benzyl)A82846B]
- activity at the 24-hour time point (MRSA ATCC 33591; fCmax): bactericidal (Bacteriostatic and bactericidal activity of the antimicrobial agents were defined as a reduction in viable cell counts of <3 or ≥3 log at 24 hours relative to the starting inoculum, respectively)
- activity at the 24-hour time point (MRSA ATCC 33591; fCmax 800 (16 μg/mL)): bactericidal (Bacteriostatic and bactericidal activity of the antimicrobial agents were defined as a reduction in viable cell counts of <3 or ≥3 log at 24 hours relative to the starting inoculum, respectively)
- activity at 24 hours (MRSA ATCC 33591): bacteriostatic (Bacteriostatic and bactericidal activity of the antimicrobial agents were defined as a reduction in viable cell counts of <3 or ≥3 log at 24 hours relative to the starting inoculum, respectively)
- activity at the 24-hour time point (MSSA ATCC 29213 [1]; [8]): bactericidal (Bacteriostatic and bactericidal activity of the antimicrobial agents were defined as a reduction in viable cell counts of <3 or ≥3 log at 24 hours relative to the starting inoculum, respectively)
- activity at the 24-hour time point (MSSA ATCC 29213 [1]; stationary-phase inoculum, estimated fCmax, nutrient-depleted CAMHB): bactericidal (Bacteriostatic and bactericidal activity of the antimicrobial agents were defined as a reduction in viable cell counts of <3 or ≥3 log at 24 hours relative to the starting inoculum, respectively)
- activity at the 24-hour time point (VRSA VRS5): bacteriostatic (Bacteriostatic and bactericidal activity of the antimicrobial agents were defined as a reduction in viable cell counts of <3 or ≥3 log at 24 hours relative to the starting inoculum, respectively)
- activity at 24 hours (VRSA VRS5): bacteriostatic (Bacteriostatic and bactericidal activity of the antimicrobial agents were defined as a reduction in viable cell counts of <3 or ≥3 log at 24 hours relative to the starting inoculum, respectively)

SMILES: CN[C@H](CC(C)C)C(=O)N[C@H]1C(=O)N[C@@H](CC(N)=O)C(=O)N[C@H]2C(=O)N[C@H]3C(=O)N[C@H](C(=O)N[C@H](C(=O)O)c4cc(O)cc(O)c4-c4cc3ccc4O)[C@H](O)c3ccc(c(Cl)c3)Oc3cc2cc(c3O[C@@H]2O[C@H](CO)[C@@H](O)[C@H](O)[C@H]2O[C@H]2C[C@](C)(N)[C@H](O)[C@H](C)O2)Oc2ccc(cc2Cl)[C@H]1O [Vancomycin, vancomycin]
- activity at the 24-hour time point (MRSA ATCC 33591; fCmax): bacteriostatic (Bacteriostatic and bactericidal activity of the antimicrobial agents were defined as a reduction in viable cell counts of <3 or ≥3 log at 24 hours relative to the starting inoculum, respectively)
- activity at 24 hours (MRSA ATCC 33591): bacteriostatic (Bacteriostatic and bactericidal activity of the antimicrobial agents were defined as a reduction in viable cell counts of <3 or ≥3 log at 24 hours relative to the starting inoculum, respectively)
- activity at the 24-hour time point (MSSA ATCC 29213 [1]; [8]): bactericidal (Bacteriostatic and bactericidal activity of the antimicrobial agents were defined as a reduction in viable cell counts of <3 or ≥3 log at 24 hours relative to the starting inoculum, respectively)
- activity at the 24-hour time point (MSSA ATCC 29213 [1]; stationary-phase, free-trough concentrations): bacteriostatic (Bacteriostatic and bactericidal activity of the antimicrobial agents were defined as a reduction in viable cell counts of <3 or ≥3 log at 24 hours relative to the starting inoculum, respectively)
- activity at the 24-hour time point (VRSA VRS5): bacteriostatic (Bacteriostatic and bactericidal activity of the antimicrobial agents were defined as a reduction in viable cell counts of <3 or ≥3 log at 24 hours relative to the starting inoculum, respectively)
- activity at 24 hours (VRSA VRS5): bacteriostatic (Bacteriostatic and bactericidal activity of the antimicrobial agents were defined as a reduction in viable cell counts of <3 or ≥3 log at 24 hours relative to the starting inoculum, respectively)
- MBEC (MSSA ATCC 29213 [2]): > 128 µg/mL
- MBEC [3]: > 128 µg/mL
- MBEC [4]: > 128 mg/L
- MBEC [5]: > 128 mg/L
- MBEC [6]: > 128 mg/L
- MBEC [7]: > 128 mg/L
